This is an account of results in paper PMC3115984.

By UniProt entry, the sequences of proteins in these tests, tags left out. Where a name states a change or a piece, a line headed by the entry shows the natural chain unless it says otherwise. Chains listed by the source or under a name are the forms on record and can include a tag or linker. Residues count along the entry.
UniProt Q12846: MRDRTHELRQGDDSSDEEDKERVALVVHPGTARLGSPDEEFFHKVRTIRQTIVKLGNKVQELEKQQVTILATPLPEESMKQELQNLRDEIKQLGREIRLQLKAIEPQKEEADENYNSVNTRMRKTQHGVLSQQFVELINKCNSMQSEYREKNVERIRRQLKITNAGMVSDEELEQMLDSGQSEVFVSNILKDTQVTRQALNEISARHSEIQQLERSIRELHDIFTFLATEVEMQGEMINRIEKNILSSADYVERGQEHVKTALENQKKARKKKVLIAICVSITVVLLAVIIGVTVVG
syntaxin 4-Δ29 (myc-tagged human syntaxin 4 lacking the first 29 N-terminal amino acids): residues 30-297 of Q12846
UniProt A0A8I3N4I4: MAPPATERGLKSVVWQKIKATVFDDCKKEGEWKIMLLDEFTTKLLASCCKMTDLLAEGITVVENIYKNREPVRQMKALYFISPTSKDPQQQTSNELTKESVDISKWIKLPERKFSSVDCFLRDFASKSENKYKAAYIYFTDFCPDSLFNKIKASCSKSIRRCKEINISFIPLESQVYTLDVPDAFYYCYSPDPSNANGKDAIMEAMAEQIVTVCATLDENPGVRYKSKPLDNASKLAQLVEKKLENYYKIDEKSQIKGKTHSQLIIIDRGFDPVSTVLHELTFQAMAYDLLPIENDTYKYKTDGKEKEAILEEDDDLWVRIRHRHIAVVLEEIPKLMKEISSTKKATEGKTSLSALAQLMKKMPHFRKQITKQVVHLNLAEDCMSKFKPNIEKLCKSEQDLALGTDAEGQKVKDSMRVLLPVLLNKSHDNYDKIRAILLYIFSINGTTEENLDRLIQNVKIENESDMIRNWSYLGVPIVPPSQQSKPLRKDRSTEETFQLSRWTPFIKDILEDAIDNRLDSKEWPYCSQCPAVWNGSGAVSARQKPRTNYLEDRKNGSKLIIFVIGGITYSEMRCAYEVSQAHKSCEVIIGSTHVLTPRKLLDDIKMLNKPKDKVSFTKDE

For assay [1], the target named is syntaxin 4-WT (myc-tagged human syntaxin 4) (human) (UniProt Q12846). Description: co-IP; lysates of polarized stable MDCK cell lines induced with DOX; anti-myc antibody cross-linked to protein A-Sepharose, overnight at 4°C; 50 mM Hepes-KOH pH 7.4, 50 mM potassium acetate, 1% Triton X-100; immunoblot for endogenous SNAP-23 and Munc18c. For orientation: Immunoblotting shows a protein as a band on a membrane.

Assay [2] concerns the target syntaxin 4-Δ29 (myc-tagged human syntaxin 4 lacking the first 29 N-terminal amino acids) (human) (UniProt Q12846). The description is as above.

No constants are given. Whether binding was seen depends on the method and setting. Binding seen in cells or lysates may run through a third protein. Some entries that bind do so weakly or less than the wild type.

With “Munc18c (endogenous, MDCK) (from UniProt A0A8I3N4I4 1-621)”, the binding result in assay [1] was “binds”; in assay [2], “no binding”.
